According to the supplement of paper PMC8090911:
Where a name gives a salt, the structure may show the parent alone. This is one part of the list. Repeats are few or missing, and single values can be far off. Where a SMILES comes first, the peptide text is derived from it. Bridges are numbered along the chain shown (N, C = ends). [ ]: non-standard residue; d: D form. The star is where a group is joined. Ileψ(thiazoline)Cys = CC[C@H](C)[C@H](N)C1=N[C@H](C(=O)*)CS1; dOrn = NCCC[C@@H](N)C(=O)O

What follows are molecules tested on p95-ErbB2-MCF7 (assay: perinuclear lysosome accumulation (PNLA, size of LAMP2 puncta), robust Z-score vs plate median; higher = more perinuclear lysosome accumulation (reversal of invasive lysosome distribution)). Conditions: 5 µM; 24 h.
Work on `CC[C@H]1OC(=O)[C@H](C)[C@@H](O[C@H]2C[C@@](C)(OC)[C@@H](O)[C@H](C)O2)[C@H](C)[C@@H](O[C@@H]2O[C@H](C)C[C@H](N(C)C)[C@H]2O)[C@](C)(O)C[C@@H](C)[C@@H]2N[C@@H](COCCOC)O[C@H]([C@H]2C)[C@]1(C)O` [Dirithromycin] yielded a perinuclear lysosome accumulation of -0.323.
For `O=C1CC2(CCCC2)CC(=O)N1CCCCN1CCN(c2ncccn2)CC1` [Buspirone hydrochloride], the perinuclear lysosome accumulation was -3.14.
With `CCCNCC(O)COc1ccccc1C(=O)CCc1ccccc1` (stereo not drawn) [Propafenone hydrochloride] the perinuclear lysosome accumulation was 0.302.
`COc1cc([C@@H]2c3cc4c(cc3[C@@H](O[C@@H]3O[C@@H]5CO[C@@H](C)O[C@H]5[C@H](O)[C@H]3O)[C@H]3COC(=O)[C@H]23)OCO4)cc(OC)c1O` [Etoposide] was tested, and the perinuclear lysosome accumulation was 0.0852.
`COc1ccccc1OCC(O)CN1CCN(CC(=O)Nc2c(C)cccc2C)CC1` (stereo not drawn) [Ranolazine] was tested, and the perinuclear lysosome accumulation was -1.3.
`C[C@H]1C[C@@H]2[C@H]([C@@H](O)C[C@@]3(C)[C@H]2CC[C@]3(O)C(=O)CO)[C@@]2(C)C=CC(=O)C=C12` [Methylprednisolone, 6-alpha] showed a perinuclear lysosome accumulation of -2.73.
`CC(C)NCC(O)c1ccc2ccccc2c1` (stereo not drawn) [Pronethalol hydrochloride] gave a perinuclear lysosome accumulation of -0.966.
Molecule `Nc1nc2n[nH]nc2c(=O)[nH]1` [Azaguanine-8] has a perinuclear lysosome accumulation of -0.297.
`CN(C)c1nc(N(C)C)nc(N(C)C)n1` [Altretamine] showed a perinuclear lysosome accumulation of 0.208.
Work on `O=C1OCCN1/N=C/c1ccc([N+](=O)[O-])o1` [Furazolidone] yielded a perinuclear lysosome accumulation of -1.57.
In the case of `O=S(=O)(O)c1cc(O)ccc1O` [Ethamsylate], the perinuclear lysosome accumulation is reported as 0.863.
Molecule `CCC(=O)O[C@]1(C(=O)CCl)[C@@H](C)C[C@H]2[C@@H]3CCC4=CC(=O)C=C[C@]4(C)[C@@]3(F)[C@@H](O)C[C@@]21C` [Clobetasol propionate] has a perinuclear lysosome accumulation of -0.725.
For `c1ccc([C@H]2CN3CCSC3=N2)cc1` [Levamisole hydrochloride], the perinuclear lysosome accumulation was -1.95.
`c1ccc2c3c([nH]c2c1)C1C2CCC(C4CCCNC42)N1CC3` (stereo not drawn) [Nitrarine dihydrochloride] was tested, and the perinuclear lysosome accumulation was 0.2.
Work on `COc1ccc(C2CNC(=O)C2)cc1OC1CCCC1` (stereo not drawn) [Rolipram] yielded a perinuclear lysosome accumulation of 0.738.
`O=c1oc2ccccc2c(O)c1Cc1c(O)c2ccccc2oc1=O` [Dicumarol] showed a perinuclear lysosome accumulation of -1.49.
`CN1CCN(CCCN2c3ccccc3Sc3ccc(Cl)cc32)CC1` [Prochlorperazine dimaleate] showed a perinuclear lysosome accumulation of 3.13.
`CN1CCN(c2c(F)cc3c(=O)c(C(=O)O)cn(CCF)c3c2F)CC1` [Fleroxacin] showed a perinuclear lysosome accumulation of 0.957.
In the case of `C[C@H](CCC(=O)O)[C@H]1CC[C@H]2[C@@H]3[C@H](O)C[C@@H]4C[C@H](O)CC[C@]4(C)[C@H]3CC[C@]12C` [Chenodiol], the perinuclear lysosome accumulation is reported as 0.585.
`CC(=O)OCC(CCn1cnc2cnc(N)nc21)COC(C)=O` [Famciclovir] gave a perinuclear lysosome accumulation of -2.27.
With `NNc1nncc2ccccc12` [Hydralazine hydrochloride] the perinuclear lysosome accumulation was 0.368.
`COc1c2occc2c(OC)c2c(=O)cc(C)oc12` [Khellin] showed a perinuclear lysosome accumulation of -0.312.
`CC[C@H](C)C(=O)O[C@H]1CCC=C2C=C[C@H](C)[C@H](CC[C@@H]3C[C@@H](O)CC(=O)O3)[C@H]21` [Mevastatin] showed a perinuclear lysosome accumulation of -0.78.
Molecule `Nc1cc(C(Cl)=C(Cl)Cl)c(S(N)(=O)=O)cc1S(N)(=O)=O` [Clorsulon] has a perinuclear lysosome accumulation of -0.269.
`CN(C)[C@@H]1C(O)=C(C(=O)NCN2CCCC2)C(=O)[C@@]2(O)C(O)=C3C(=O)c4c(O)cccc4[C@@](C)(O)[C@H]3C[C@@H]12` [Rolitetracycline] gave a perinuclear lysosome accumulation of -1.04.
Molecule `Cc1c(N(C)CS(=O)(=O)O)c(=O)n(-c2ccccc2)n1C` [Dipyrone] has a perinuclear lysosome accumulation of 0.395.
Molecule `CC(NCCC(c1ccccc1)c1ccccc1)c1ccccc1` (stereo not drawn) [Fendiline hydrochloride] has a perinuclear lysosome accumulation of 2.21.
Work on `CNCC(O)c1ccc(OC(=O)C(C)(C)C)c(OC(=O)C(C)(C)C)c1` (stereo not drawn) [Dipivefrin hydrochloride] yielded a perinuclear lysosome accumulation of -2.49.
`CC(C)NCC(O)c1ccc(O)c(O)c1` (single isomer, unassigned; (+)) [(+)-Isoproterenol (+)-bitartrate salt] showed a perinuclear lysosome accumulation of -2.87.
`CCN(CC)CCc1nc(-c2ccccc2)no1` [Oxalamine citrate salt] showed a perinuclear lysosome accumulation of -0.228.
Molecule `CC(C)NC[C@@H](O)COc1cccc2ccccc12` [(R)-Propranolol hydrochloride] has a perinuclear lysosome accumulation of 0.893.
`CN(C)CCOC(C)(c1ccccc1)c1ccccn1` (stereo not drawn) [Doxylamine succinate] was tested, and the perinuclear lysosome accumulation was 0.408.
`CC(=O)c1ccc2c(c1)N(CCCN(C)C)c1ccccc1S2` [Acetopromazine maleate salt] was tested, and the perinuclear lysosome accumulation was 0.879.
For `CC(C)(C#N)c1cc(Cn2cncn2)cc(C(C)(C)C#N)c1` [Anastrozole], the perinuclear lysosome accumulation was -1.59.
Work on `Oc1c(I)cc(Cl)c2cccnc12` [Clioquinol] yielded a perinuclear lysosome accumulation of -0.487.
In the case of `Nc1ccn([C@H]2CC[C@@H](CO)O2)c(=O)n1` [Zalcitabine], the perinuclear lysosome accumulation is reported as -0.663.
In the case of `CN(C(=O)C(Cl)Cl)c1ccc(OC(=O)c2ccco2)cc1` [Diloxanide furoate], the perinuclear lysosome accumulation is reported as -0.987.
With `COc1ccc(OC)c(C(O)CNC(=O)CN)c1` (stereo not drawn) [Midodrine hydrochloride] the perinuclear lysosome accumulation was -2.67.
`CN(C)CCN1C(=O)c2ccccc2N(C)c2ccccc21` [Dibenzepine hydrochloride] gave a perinuclear lysosome accumulation of -0.709.
`CN1CCN(CCCN2c3ccccc3Sc3ccc(C(F)(F)F)cc32)CC1` [Trifluoperazine dihydrochloride] gave a perinuclear lysosome accumulation of 2.2.
`CC[C@H](C)[C@H](N)C1=N[C@H](C(=O)N[C@@H](CC(C)C)C(=O)N[C@H](CCC(=O)O)C(=O)N[C@H](C(=O)N[C@H]2CCCCNC(=O)[C@H](CC(N)=O)NC(=O)[C@@H](CC(=O)O)NC(=O)[C@H](Cc3cnc[nH]3)NC(=O)[C@@H](Cc3ccccc3)NC(=O)[C@H]([C@@H](C)CC)NC(=O)[C@@H](CCCN)NC2=O)[C@@H](C)CC)CS1` [Bacitracin] ({Ileψ(thiazoline)Cys}-L[dE]IK[dOrn]I[dF]H[dD]N; lactam 4-C) gave a perinuclear lysosome accumulation of -0.586.
`CCOC(=O)O[C@]1(C(=O)COC(=O)CC)CC[C@H]2[C@@H]3CCC4=CC(=O)C=C[C@]4(C)[C@H]3[C@@H](O)C[C@@]21C` [Prednicarbate] gave a perinuclear lysosome accumulation of -1.36.
In the case of `C=C1c2c(Cl)ccc(O)c2C(=O)C2=C(O)[C@]3(O)C(=O)C(C(N)=O)=C(O)[C@@H](N(C)C)[C@@H]3[C@@H](O)[C@H]12.O=C(O)c1cc(S(=O)(=O)O)ccc1O` [Meclocycline sulfosalicylate], the perinuclear lysosome accumulation is reported as 0.774.
Molecule `CC(C)(C)NCC(O)COc1cccc2c1CCC(=O)N2` (stereo not drawn) [Carteolol hydrochloride] has a perinuclear lysosome accumulation of 1.21.
Work on `COc1ccc2c(c1)c(CC(=O)O)c(C)n2C(=O)c1ccc(Cl)cc1` [Indomethacin] yielded a perinuclear lysosome accumulation of 0.098.
In the case of `Nc1nc2ccc(OC(F)(F)F)cc2s1` [Riluzole hydrochloride], the perinuclear lysosome accumulation is reported as 0.509.
With `C(=C\c1ccccc1)/CN1CCN(C(c2ccccc2)c2ccccc2)CC1` [Cinnarizine] the perinuclear lysosome accumulation was -2.04.
For `O=C(C1CCCCC1)N1CC(=O)N2CCc3ccccc3C2C1` (stereo not drawn) [Praziquantel], the perinuclear lysosome accumulation was 0.242.
With `C[C@H]1O[C@@H](O[C@H]2[C@@H](O)C[C@H](O[C@H]3[C@@H](O)C[C@H](O[C@H]4CC[C@@]5(C)[C@H](CC[C@@H]6[C@@H]5C[C@@H](O)[C@]5(C)[C@@H](C7=CC(=O)OC7)CC[C@]65O)C4)O[C@@H]3C)O[C@@H]2C)C[C@H](O)[C@@H]1O` [Digoxin] the perinuclear lysosome accumulation was 0.519.
For `COc1cc([S+](C)[O-])ccc1-c1nc2cccnc2[nH]1` (stereo not drawn) [Sulmazole], the perinuclear lysosome accumulation was -1.36.
`CC(C(=O)O)c1ccc(-c2ccccc2)c(F)c1` (stereo not drawn) [Flurbiprofen] was tested, and the perinuclear lysosome accumulation was -1.04.
`O=C(OCC(O)CO)c1ccccc1Nc1ccnc2cc(Cl)ccc12` (stereo not drawn) [Glafenine hydrochloride] was tested, and the perinuclear lysosome accumulation was 0.395.
For `Cc1cccc(C)c1NC(=O)C(C)N` (stereo not drawn) [Tocainide hydrochloride], the perinuclear lysosome accumulation was -1.
`CCCCc1cc2ccccc2c(OCCN(C)C)n1` [Dimethisoquin hydrochloride] gave a perinuclear lysosome accumulation of -0.365.
For `CC(C(=O)O)c1ccc2c(c1)[nH]c1ccc(Cl)cc12` (stereo not drawn) [Carprofen], the perinuclear lysosome accumulation was -0.0869.
Molecule `Oc1c(Cl)cc(Cl)c(Cl)c1Cc1c(O)c(Cl)cc(Cl)c1Cl` [Hexachlorophene] has a perinuclear lysosome accumulation of 4.76.
`Cc1c(N(C)C)c(=O)n(-c2ccccc2)n1C` [Amidopyrine] gave a perinuclear lysosome accumulation of -0.969.
With `COc1ccc(/C=C/C(=O)Nc2ccccc2C(=O)O)cc1OC` [Tranilast] the perinuclear lysosome accumulation was -1.43.
`Oc1ccc(/C=C/c2cc(O)cc(O)c2)cc1` [Resveratrol] was tested, and the perinuclear lysosome accumulation was 0.828.
`CCOC(=O)C1=C(COCCN)NC(C)=C(C(=O)OC)C1c1ccccc1Cl` (stereo not drawn) [Amlodipine] was tested, and the perinuclear lysosome accumulation was 0.343.
In the case of `CN1[C@@H]2CC[C@H]1C[C@@H](OC(=O)c1c[nH]c3ccccc13)C2` [Tropisetron HCl], the perinuclear lysosome accumulation is reported as -1.75.
For `Cc1cccc(C)c1OCC(C)N` (stereo not drawn) [Mexiletine hydrochloride], the perinuclear lysosome accumulation was 0.339.
In the case of `COc1ccccc1OCC(O)CO` (stereo not drawn) [Guaifenesin], the perinuclear lysosome accumulation is reported as -0.323.
`NC[C@@H]1O[C@H](O[C@H]2[C@@H](O)[C@H](O[C@@H]3[C@@H](O)[C@H](N)C[C@H](N)[C@H]3O[C@H]3O[C@H](CO)[C@@H](O)[C@H](O)[C@H]3N)O[C@@H]2CO)[C@H](N)[C@@H](O)[C@@H]1O` [Paromomycin sulfate] gave a perinuclear lysosome accumulation of 0.00176.
`CC(=O)[C@H]1CC[C@H]2[C@@H]3C=CC4=CC(=O)CC[C@@]4(C)[C@@H]3CC[C@]12C` [Dydrogesterone] was tested, and the perinuclear lysosome accumulation was -0.0332.
Work on `Nc1ccccc1S(N)(=O)=O` [2-Aminobenzenesulfonamide] yielded a perinuclear lysosome accumulation of 0.0694.
With `COc1ccccc1Oc1c(NS(=O)(=O)c2ccc(C(C)(C)C)cc2)nc(-c2ncccn2)nc1OCCO` [Bosentan] the perinuclear lysosome accumulation was -2.05.
`CC(C)[N+](C)(CCOC(=O)C1c2ccccc2Oc2ccccc21)C(C)C` [Propantheline bromide] gave a perinuclear lysosome accumulation of 1.64.
